# PubChem BioAssay AID1259299, Sanger Institute, 2017
# Assay: 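Kinases and colorectal mutated genes needed by colorectal cancer cells, with or without drugs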 (primary screen)
# System: human CAR1 colorectal cancer cells
# Reagents: siRNA pool against human genes
# Conditions: anchor drug BYL719 1 µM, cetuximab 5 µg/ml or trametinib 10 nM, or DMSO vehicle alone; exposure length not given
# Detection: 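Mean replicate viability versus non-targeting controls, turned into robust z-scores, plus drug synergy scores for BYL719, cetuximab and trametinib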
# Direction: viability robust z-score, knock-down alone and viability, knock-down alone (DMSO): higher = more viable cells; synergy score with BYL719 and synergy score with cetuximab and synergy score with trametinib: higher = stronger synergy with drug (synthetic lethal)
# Rule for the call: 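Essential when viability robust z-score with knock-down alone (DMSO) is below -3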
# Meaning of the calls: active = essential (knock-down alone); inactive = no change
# The deposit covers 794 reagents; shown is an unselected part. 9 of them (1.1%) count as active. 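Calls rest on knock-down alone; synergy scores play no part in calls, and no gene passed the synergy cut.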 Viability is capped at 1. Not stated in the record: the amount of reagent, the time to read-out.
target,"viability robust z-score, knock-down alone","viability, knock-down alone (DMSO) (fraction of control)",synergy score with BYL719,synergy score with cetuximab,synergy score with trametinib,call
POMK,0.707,0.992,-0.113,-0.0755,-0.128,inactive
PHKB,0.789,1,-0.206,-0.071,-0.109,inactive
ACVR1C,0.789,1,-0.177,-0.0692,0.0377,inactive
AK3,-0.111,0.917,-0.0649,-0.15,-0.037,inactive
CERK,0.789,1,-0.132,-0.0327,-0.147,inactive
BCKDK,0.789,1,-0.0714,-0.0672,-0.104,inactive
BRDT,-0.551,0.876,-0.281,-0.148,-0.0739,inactive
PFKFB1,-0.354,0.894,-0.0413,0.0203,0.0306,inactive
GRK6,0.238,0.949,-0.159,-0.12,-0.124,inactive
IP6K3,0.269,0.952,0.0567,0.0326,0.0739,inactive
DBF4,0.789,1,-0.0885,-0.073,-0.153,inactive
MAP2K1,-0.695,0.863,-0.235,-0.104,-0.161,inactive
PRKDC,-1.88,0.753,-0.124,-0.139,0.00941,inactive
SPHK1,0.655,0.988,0.0392,-0.0265,0.0391,inactive
MYO3B,0.378,0.962,-0.216,-0.108,-0.0258,inactive
PRKCD,0.551,0.978,-0.083,0.0575,-0.17,inactive
BTK,0.789,1,-0.0117,-0.0245,-0.0234,inactive
RTN4,0.789,1,-0.128,-0.073,-0.0825,inactive
MED12,0.743,0.996,-0.0223,-0.077,-0.000847,inactive
BMPR1B,-0.477,0.883,-0.109,-0.0715,-0.0211,inactive
PIK3R3,0.789,1,-0.117,0.00743,-0.221,inactive
RIOK2,0.00315,0.927,-0.0589,-0.136,-0.193,inactive

Next part (7 carried over from the part before).
target,"viability robust z-score, knock-down alone","viability, knock-down alone (DMSO) (fraction of control)",synergy score with BYL719,synergy score with cetuximab,synergy score with trametinib,call
PRKCD,0.551,0.978,-0.083,0.0575,-0.17,inactive
BTK,0.789,1,-0.0117,-0.0245,-0.0234,inactive
RTN4,0.789,1,-0.128,-0.073,-0.0825,inactive
MED12,0.743,0.996,-0.0223,-0.077,-0.000847,inactive
BMPR1B,-0.477,0.883,-0.109,-0.0715,-0.0211,inactive
PIK3R3,0.789,1,-0.117,0.00743,-0.221,inactive
RIOK2,0.00315,0.927,-0.0589,-0.136,-0.193,inactive
EIF2AK2,0.789,1,-0.0278,-0.0622,-0.197,inactive
TTBK2,0.756,0.997,0.0676,0.153,0.149,inactive
MAPK15,0.789,1,-0.167,-0.0715,-0.169,inactive
BRWD1,0.196,0.945,-0.0356,-0.045,0.0427,inactive
AURKB,-2.87,0.662,-0.0779,-0.0431,-0.0188,inactive
DLG2,-0.146,0.914,-0.199,-0.121,-0.155,inactive
STK40,0.319,0.957,-0.107,-0.108,-0.129,inactive
HK1,0.789,1,-0.179,-0.0496,-0.149,inactive
COASY,-1.7,0.77,0.0556,0.0199,0.183,inactive
PNCK,0.789,1,-0.0269,-0.073,-0.138,inactive
IPMK,0.789,1,-0.205,-0.073,-0.14,inactive
FGFRL1,-0.11,0.917,-0.218,-0.073,0.00851,inactive
RNASEL,0.647,0.987,-0.176,0.113,-0.0875,inactive
TJP2,-1.51,0.788,-0.164,-0.175,-0.108,inactive
EPHB6,0.519,0.975,-0.0488,-0.0736,-0.0392,inactive
PANK2,0.789,1,-0.0193,0.0228,0.0738,inactive
NUCKS1,0.789,1,-0.206,-0.073,-0.111,inactive
ADGRL2,0.789,1,-0.181,-0.0294,-0.113,inactive
MAST2,0.789,1,-0.12,-0.00648,-0.046,inactive
CTNNB1,-0.56,0.875,-0.129,-0.0803,-0.118,inactive
STK36,-0.306,0.899,-0.191,-0.0828,-0.122,inactive
RPS6KA2,-2.65,0.682,-0.0639,-0.0727,0.0607,inactive
AK1,0.789,1,-0.0729,-0.00984,0.131,inactive
ARAF,0.789,1,-0.206,-0.073,-0.135,inactive
IDH2,0.789,1,-0.0493,0.0222,-0.188,inactive
PIP5KL1,-0.00709,0.926,-0.264,-0.0845,-0.13,inactive
SYNCRIP,-2.38,0.708,-0.0933,-0.0658,-0.104,inactive
CERT1,0.61,0.983,-0.0888,-0.0884,-0.0492,inactive
